Consider 18 compounds from PubChem BioAssay AID493014 (National Center for Advancing Translational Sciences (NCATS), 2011).

Some of the results follow. The main result of the screen is listed elsewhere. These columns were measured beside it and carry no call. Most of these compounds were active or inconclusive in the main read-out, so they are no random draw. Potencies come from curve fits of mixed quality, noted in brackets.

A short description of the assay: qHTS Assay to Find Inhibitors of Chronic Active B-Cell Receptor Signaling. The conditions noted are these: ABC-DLBCL IkBa-CBG/CBR reporter, luminescence ratio (green luciferase fused to IkBa over red control in TMD8 lymphoma cells), 4 h; measured here: CBR red luminescence, cell number. Put shortly: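 TMD8 human ABC-DLBCL cells with doxycycline-inducible IκBα–green luciferase fusion and unfused red luciferase, in 0.5% FBS medium; compounds up to 46 uM, 4 h at 37C. Green/red luminescence ratio, filter-overlap corrected, fitted to concentration-response curves.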
Consider `COc1cccc(NC(=O)Nc2cc(NC(=O)Nc3cccc(OC)c3)c(C)nc2C)c1`, for which the AC50 was 3.26 µM [rising, partial curve, poor fit].
For the compound `CCCOC(=O)Nc1nnc(CCC)s1`, the AC50 was 0.0517 µM [falling, full curve, poor fit].
As for `CC(NC(=O)COC(=O)c1ccco1)c1ccccc1` (stereo not drawn), the AC50 is 0.103 µM [falling, full curve, poor fit].
Turning to `C=CC[C@@H](CC(=O)N(CCO)Cc1ccccc1)C(=O)N[C@@H](COC(=O)[C@@H](CC=C)Cc1ccc(F)cc1)Cc1c[nH]c2ccccc12`, the AC50 was 18.4 µM [falling, partial curve].
As to `CCc1ccc(NC(=O)c2cc(S(=O)(=O)NC3CCCC3)ccc2F)cc1`, the AC50 was 17.8 µM [falling, single point].
In the case of `CC1=CC(C)(C)N2C(=O)C3(C(C#N)=C(N)Oc4cc(O)ccc43)c3c(C)c(C)cc1c32` (stereo not drawn), the concentration at half-maximal activity (AC50) is 8.2 µM [falling, partial curve, poor fit].
Regarding `Cc1ccc(CN2CCN(C(=O)c3ccco3)CC2)cc1`, the AC50 was 8.2 µM [rising, partial curve].
Turning to `N#Cc1cnn(-c2nc3sc4c(c3c(=O)[nH]2)CCCC4)c1N`, the AC50 is 3.66 µM [rising, full curve, poor fit].
Regarding `CN1CCN(C(=O)c2ccccc2-c2nc(-c3ccccc3)no2)CC1`, the AC50 is 12.6 µM [rising, partial curve].
To `Cn1c(/C=C/c2cccc(Br)c2)nc2ccccc2c1=O` belongs 35.5 µM [falling, single point]; to `Nc1nnnn1/N=C/c1ccc(N2CCCCC2)c([N+](=O)[O-])c1`, 11.6 µM [rising, partial curve, poor fit].
Take `CCOC(=O)c1c(N)c(C#N)nn1-c1ccccc1C(=O)OC`: the AC50 was 11.6 µM [falling, partial curve, poor fit].
Consider `O=C(CN1C(=O)S/C(=C\c2ccccc2F)C1=O)Nc1ccccc1O`, for which the concentration at half-maximal activity (AC50) was 35.5 µM [falling, single point].
As to `O=C(CN(Cc1ccccc1)C(=O)CCl)c1cccc(Br)c1`, the concentration at half-maximal activity (AC50) was 6.51 µM [falling, full curve, poor fit].
The same measure for `O=C(Nc1ccccc1)Nc1ccccc1C(=O)NCc1ccco1`: 13 µM [falling, partial curve, poor fit]; for `S=C(NCCc1ccccc1)NCCc1ccccc1`: 1.3 µM [rising, full curve, poor fit].
The same measure for `O=C(CCOc1ccccc1)Nc1cccc(S(=O)(=O)Nc2ccccc2Cl)c1`: 14.6 µM [falling, single point].
The same measure for `CC(=O)N1CCN(c2ccc(Nc3ncnc4c3oc3ccccc34)cc2)CC1`: 25.1 µM [falling, single point].
